The test addresses PRSS2 (wild type), secreted into conditioned medium of transfected 293T cells (human) (UniProt P07478). As to the kind of experiment: co-IP.

Protein sequences, listed by entry. Tags and fused reporters are not part of them. Residues count along the entry.
UniProt P07478, residues 24-247: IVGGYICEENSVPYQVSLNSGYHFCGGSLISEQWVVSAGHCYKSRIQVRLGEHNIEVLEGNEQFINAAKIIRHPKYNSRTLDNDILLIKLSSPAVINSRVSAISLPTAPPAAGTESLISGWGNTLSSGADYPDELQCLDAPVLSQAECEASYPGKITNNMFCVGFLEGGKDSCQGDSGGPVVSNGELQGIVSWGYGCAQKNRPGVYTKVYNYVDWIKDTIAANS
UniProt Q07954, residues 20-4544: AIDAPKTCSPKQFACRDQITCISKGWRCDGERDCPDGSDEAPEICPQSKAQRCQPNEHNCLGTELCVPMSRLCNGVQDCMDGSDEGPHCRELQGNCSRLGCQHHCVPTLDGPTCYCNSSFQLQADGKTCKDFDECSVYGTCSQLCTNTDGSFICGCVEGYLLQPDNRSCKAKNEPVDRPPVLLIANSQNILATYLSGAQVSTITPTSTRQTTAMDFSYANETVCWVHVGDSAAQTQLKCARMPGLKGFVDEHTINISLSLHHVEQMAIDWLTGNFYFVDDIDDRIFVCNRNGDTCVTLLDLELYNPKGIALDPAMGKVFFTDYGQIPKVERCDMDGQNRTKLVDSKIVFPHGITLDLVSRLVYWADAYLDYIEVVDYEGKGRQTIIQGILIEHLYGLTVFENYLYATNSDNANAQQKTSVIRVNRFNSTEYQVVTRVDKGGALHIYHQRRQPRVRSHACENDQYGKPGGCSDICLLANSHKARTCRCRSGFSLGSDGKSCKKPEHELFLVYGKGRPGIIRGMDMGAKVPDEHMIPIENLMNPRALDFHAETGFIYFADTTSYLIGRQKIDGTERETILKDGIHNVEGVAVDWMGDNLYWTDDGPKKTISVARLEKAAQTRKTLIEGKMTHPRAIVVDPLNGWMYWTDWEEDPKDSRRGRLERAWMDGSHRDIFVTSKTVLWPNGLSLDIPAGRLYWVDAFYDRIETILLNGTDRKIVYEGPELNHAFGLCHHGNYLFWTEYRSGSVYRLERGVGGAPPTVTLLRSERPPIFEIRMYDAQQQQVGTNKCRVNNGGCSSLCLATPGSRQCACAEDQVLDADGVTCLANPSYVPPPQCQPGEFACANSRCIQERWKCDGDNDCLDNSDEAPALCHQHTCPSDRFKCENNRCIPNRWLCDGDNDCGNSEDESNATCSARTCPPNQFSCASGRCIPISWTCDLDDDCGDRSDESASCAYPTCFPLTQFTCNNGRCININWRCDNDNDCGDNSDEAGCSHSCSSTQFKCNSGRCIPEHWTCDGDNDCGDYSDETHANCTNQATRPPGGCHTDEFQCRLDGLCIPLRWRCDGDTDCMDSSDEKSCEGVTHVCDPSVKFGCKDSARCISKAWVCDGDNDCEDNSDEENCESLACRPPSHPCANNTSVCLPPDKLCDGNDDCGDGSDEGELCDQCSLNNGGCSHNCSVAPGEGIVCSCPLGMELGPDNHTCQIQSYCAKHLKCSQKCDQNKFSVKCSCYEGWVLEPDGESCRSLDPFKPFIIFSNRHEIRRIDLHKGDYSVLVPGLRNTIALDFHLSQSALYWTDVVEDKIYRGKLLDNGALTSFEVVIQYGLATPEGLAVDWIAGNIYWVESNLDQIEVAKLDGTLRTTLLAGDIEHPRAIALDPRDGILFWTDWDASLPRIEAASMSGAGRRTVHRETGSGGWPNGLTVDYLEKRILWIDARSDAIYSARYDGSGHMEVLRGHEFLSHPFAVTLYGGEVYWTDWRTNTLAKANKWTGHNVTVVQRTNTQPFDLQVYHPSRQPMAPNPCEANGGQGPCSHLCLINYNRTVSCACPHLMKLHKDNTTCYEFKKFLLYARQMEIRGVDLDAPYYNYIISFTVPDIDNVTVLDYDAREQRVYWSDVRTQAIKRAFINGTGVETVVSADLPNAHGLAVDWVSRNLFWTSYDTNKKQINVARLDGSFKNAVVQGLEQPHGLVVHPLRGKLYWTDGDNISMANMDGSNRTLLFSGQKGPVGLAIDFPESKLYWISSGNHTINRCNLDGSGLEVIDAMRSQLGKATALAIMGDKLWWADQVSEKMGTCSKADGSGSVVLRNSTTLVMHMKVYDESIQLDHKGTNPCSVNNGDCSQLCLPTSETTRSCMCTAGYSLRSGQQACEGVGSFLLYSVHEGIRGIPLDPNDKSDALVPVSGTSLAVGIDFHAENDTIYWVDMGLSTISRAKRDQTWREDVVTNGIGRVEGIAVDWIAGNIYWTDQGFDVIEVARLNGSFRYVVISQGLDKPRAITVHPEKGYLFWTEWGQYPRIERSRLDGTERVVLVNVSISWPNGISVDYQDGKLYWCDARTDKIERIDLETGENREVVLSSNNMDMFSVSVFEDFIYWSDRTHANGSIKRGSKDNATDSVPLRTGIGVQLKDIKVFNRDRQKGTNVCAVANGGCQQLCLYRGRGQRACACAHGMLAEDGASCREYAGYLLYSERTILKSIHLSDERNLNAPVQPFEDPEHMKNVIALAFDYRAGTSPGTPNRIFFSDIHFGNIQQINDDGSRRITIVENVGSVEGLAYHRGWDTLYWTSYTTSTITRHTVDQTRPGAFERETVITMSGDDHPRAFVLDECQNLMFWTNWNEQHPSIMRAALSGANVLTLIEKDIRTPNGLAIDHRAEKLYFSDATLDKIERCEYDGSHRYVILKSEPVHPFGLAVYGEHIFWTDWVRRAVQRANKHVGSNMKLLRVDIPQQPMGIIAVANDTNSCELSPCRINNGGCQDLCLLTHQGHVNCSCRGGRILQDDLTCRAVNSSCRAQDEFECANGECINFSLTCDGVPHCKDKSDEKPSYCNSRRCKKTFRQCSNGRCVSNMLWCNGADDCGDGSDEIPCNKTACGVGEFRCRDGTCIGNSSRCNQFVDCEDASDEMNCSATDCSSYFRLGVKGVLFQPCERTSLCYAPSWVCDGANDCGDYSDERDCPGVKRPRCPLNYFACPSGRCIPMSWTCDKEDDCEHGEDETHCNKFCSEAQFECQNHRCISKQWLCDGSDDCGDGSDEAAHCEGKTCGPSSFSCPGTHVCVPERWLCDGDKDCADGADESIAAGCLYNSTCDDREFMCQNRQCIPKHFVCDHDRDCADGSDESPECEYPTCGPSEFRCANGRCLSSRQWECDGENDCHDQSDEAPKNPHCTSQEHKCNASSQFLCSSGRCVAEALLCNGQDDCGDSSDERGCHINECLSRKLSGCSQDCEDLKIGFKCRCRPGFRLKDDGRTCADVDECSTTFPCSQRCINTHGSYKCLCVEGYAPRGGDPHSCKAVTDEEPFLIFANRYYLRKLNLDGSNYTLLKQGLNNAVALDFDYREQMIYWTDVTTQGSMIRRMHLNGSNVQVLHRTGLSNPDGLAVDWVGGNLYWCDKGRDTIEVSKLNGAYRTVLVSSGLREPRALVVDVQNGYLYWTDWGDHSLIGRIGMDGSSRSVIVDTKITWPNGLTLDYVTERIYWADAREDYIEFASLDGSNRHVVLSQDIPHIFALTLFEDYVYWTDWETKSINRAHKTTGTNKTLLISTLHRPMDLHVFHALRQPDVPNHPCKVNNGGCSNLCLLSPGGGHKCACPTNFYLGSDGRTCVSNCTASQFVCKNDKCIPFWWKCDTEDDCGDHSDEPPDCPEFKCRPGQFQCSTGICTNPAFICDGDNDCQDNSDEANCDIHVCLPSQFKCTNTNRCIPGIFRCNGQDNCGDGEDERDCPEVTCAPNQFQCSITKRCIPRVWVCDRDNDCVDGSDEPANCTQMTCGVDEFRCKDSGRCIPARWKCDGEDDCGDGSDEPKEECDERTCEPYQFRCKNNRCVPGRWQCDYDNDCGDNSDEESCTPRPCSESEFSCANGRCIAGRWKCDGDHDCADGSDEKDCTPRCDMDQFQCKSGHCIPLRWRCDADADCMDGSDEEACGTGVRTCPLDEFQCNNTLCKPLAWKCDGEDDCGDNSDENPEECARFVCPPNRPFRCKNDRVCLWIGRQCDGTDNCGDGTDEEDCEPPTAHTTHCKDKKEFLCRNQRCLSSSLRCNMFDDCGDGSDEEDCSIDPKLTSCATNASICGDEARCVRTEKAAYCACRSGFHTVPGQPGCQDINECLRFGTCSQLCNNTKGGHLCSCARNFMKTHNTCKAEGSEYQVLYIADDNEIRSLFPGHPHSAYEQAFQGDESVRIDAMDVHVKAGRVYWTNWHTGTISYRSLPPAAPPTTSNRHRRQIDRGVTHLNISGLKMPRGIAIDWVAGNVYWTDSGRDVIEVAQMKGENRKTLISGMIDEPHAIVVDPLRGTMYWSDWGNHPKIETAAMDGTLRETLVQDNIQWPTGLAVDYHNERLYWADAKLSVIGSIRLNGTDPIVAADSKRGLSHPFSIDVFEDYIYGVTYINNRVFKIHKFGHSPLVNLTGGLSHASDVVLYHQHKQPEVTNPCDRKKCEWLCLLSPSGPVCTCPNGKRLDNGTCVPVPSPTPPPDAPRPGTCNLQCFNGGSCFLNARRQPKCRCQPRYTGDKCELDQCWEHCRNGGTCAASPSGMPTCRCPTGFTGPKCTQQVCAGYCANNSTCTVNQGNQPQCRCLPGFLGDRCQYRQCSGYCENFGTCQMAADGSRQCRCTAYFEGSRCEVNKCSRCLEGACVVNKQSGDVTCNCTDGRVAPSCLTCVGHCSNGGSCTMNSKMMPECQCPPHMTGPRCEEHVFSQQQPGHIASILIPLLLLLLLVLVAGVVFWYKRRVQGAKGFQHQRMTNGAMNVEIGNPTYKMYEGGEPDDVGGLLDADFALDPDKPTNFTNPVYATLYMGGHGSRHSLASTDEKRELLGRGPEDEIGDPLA

This note sets out measurements from doi:10.1101/2021.03.23.436667.

These are yes or no findings as the source states them, for the method shown. In cells and extracts the contact can be indirect. Some entries that bind do so weakly or less than the wild type.

“low-density lipoprotein receptor-related protein 1 (LRP1), endogenous in WI-38 lung fibroblasts (from UniProt Q07954 20-4544)”: the binding result is “binds”.
